Record: PubChem BioAssay AID1224830 (NIAID, 2016)

Test: 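Host factors that control LPS-induced TNF expression in human macrophages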 (primary screen)
Cells: human THP-1 monocytic leukaemia cells, TNF dual-luciferase reporter clone, PMA-differentiated to macrophage-like cells
Reagents: siRNA pool against human genes, 50 nM
Timing: LPS for 4 h, given about 3 days after siRNA transfection
Treatment: bacterial LPS (TLR4 ligand), 10 ng/ml
Detection: 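Ratio of firefly to renilla light, scaled to the plate median and expressed as a robust z-score per replicate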
Reading the numbers: TNF reporter robust z-score: higher = stronger TNF reporter response to LPS
Call rule: 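Each well counts as active if its z-score is over 2.8 or under -1.5; controls are left without a call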
Here is an unselected part of about 18,000 deposited reagents. Of all reagents, about 2,900 (16%) were called active. 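Calls are made per well; low scores hint the gene aids the LPS response, high scores that it dampens it.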 Repeated entries: four replicate wells of each siRNA pool.

target gene	TNF reporter robust z-score	call
CDRT15P3 (GeneID 408029)	-0.94	inactive
CDRT15P3 (GeneID 408029)	-0.81	inactive
CDRT15P3 (GeneID 408029)	-1.18	inactive
CDRT15P3 (GeneID 408029)	-0.1	inactive
DUSP12 (GeneID 11266)	0.01	inactive
DUSP12 (GeneID 11266)	-1.01	inactive
DUSP12 (GeneID 11266)	-0.76	inactive
DUSP12 (GeneID 11266)	-0.62	inactive
STK36 (GeneID 27148)	0.34	inactive
STK36 (GeneID 27148)	2	inactive
STK36 (GeneID 27148)	1.11	inactive
STK36 (GeneID 27148)	0.91	inactive
DEDD2 (GeneID 162989)	-0.24	inactive
DEDD2 (GeneID 162989)	0.03	inactive
DEDD2 (GeneID 162989)	-0.84	inactive
DEDD2 (GeneID 162989)	1.28	inactive
PHETA1 (GeneID 144717)	0.11	inactive
PHETA1 (GeneID 144717)	1.14	inactive
PHETA1 (GeneID 144717)	0.1	inactive
PHETA1 (GeneID 144717)	0.94	inactive
SLC8A1 (GeneID 6546)	0.58	inactive
SLC8A1 (GeneID 6546)	0.74	inactive
SLC8A1 (GeneID 6546)	0.55	inactive
SLC8A1 (GeneID 6546)	1.12	inactive
NUDT13 (GeneID 25961)	1.27	inactive
NUDT13 (GeneID 25961)	0.52	inactive
NUDT13 (GeneID 25961)	-0.44	inactive
NUDT13 (GeneID 25961)	0.27	inactive
CCL5 (GeneID 6352)	0.1	inactive
CCL5 (GeneID 6352)	-0.4	inactive
CCL5 (GeneID 6352)	0.07	inactive
CCL5 (GeneID 6352)	1.12	inactive
OPRM1 (GeneID 4988)	1.72	inactive
OPRM1 (GeneID 4988)	-0.95	inactive
OPRM1 (GeneID 4988)	-1.72	active
OPRM1 (GeneID 4988)	-0.9	inactive
NDUFS2 (GeneID 4720)	2.03	inactive
NDUFS2 (GeneID 4720)	1.62	inactive
NDUFS2 (GeneID 4720)	1.36	inactive
NDUFS2 (GeneID 4720)	2.33	inactive
AWAT2 (GeneID 158835)	1.77	inactive
AWAT2 (GeneID 158835)	-0.06	inactive
AWAT2 (GeneID 158835)	-0.25	inactive
AWAT2 (GeneID 158835)	-0.88	inactive
CARMIL2 (GeneID 146206)	-0.24	inactive
CARMIL2 (GeneID 146206)	-0.33	inactive
CARMIL2 (GeneID 146206)	0.22	inactive
CARMIL2 (GeneID 146206)	1.82	inactive
